For one assay, the target named is T1, Myc-MST2 (UniProt Q13188).
T1 sequence: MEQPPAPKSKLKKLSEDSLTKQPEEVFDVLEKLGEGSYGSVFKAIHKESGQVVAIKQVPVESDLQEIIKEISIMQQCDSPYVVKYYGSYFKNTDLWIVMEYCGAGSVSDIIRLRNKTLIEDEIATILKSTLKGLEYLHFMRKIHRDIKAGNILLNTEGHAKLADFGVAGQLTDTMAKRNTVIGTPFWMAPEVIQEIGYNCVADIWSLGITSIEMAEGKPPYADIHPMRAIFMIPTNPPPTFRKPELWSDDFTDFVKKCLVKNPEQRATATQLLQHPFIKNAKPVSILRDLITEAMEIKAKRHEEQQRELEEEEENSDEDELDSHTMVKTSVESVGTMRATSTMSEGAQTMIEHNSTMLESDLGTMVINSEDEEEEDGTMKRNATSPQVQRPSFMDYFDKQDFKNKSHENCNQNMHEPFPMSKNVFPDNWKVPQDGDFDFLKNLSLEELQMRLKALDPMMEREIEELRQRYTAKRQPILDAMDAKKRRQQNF
The assay is described as follows: co-IP; anti-Myc immunoprecipitation of lysates of HEK293T cells transfected with Myc-MST2 and Flag-BRAP (or GFP); 20 mM Tris, 137 mM NaCl, 1% Triton X-100, pH 7.4; Protein A/G Sepharose beads, 4 °C.

For assay [1], the target named is T2, endogenous MST2 (human (endogenous in HEK293T)) (UniProt Q13188).
T2 sequence: T1 sequence
The assay is described as follows: co-IP; anti-MST2 antibody (or IgG control) immunoprecipitation of untransfected HEK293T cell lysates, endogenous proteins; 20 mM Tris, 137 mM NaCl, 1% Triton X-100, pH 7.4; Protein A/G Sepharose beads, 4 °C.

Results are given in words; binding and its absence hold for the method and conditions named. Binding seen in cells or lysates may run through a third protein. Some results given as binding are weak or reduced against the parent protein; the word gives no strength. For some assays here: Sequences can lack the tags named with a protein.

B1: Flag-BRAP (BRCA1-associated protein) (protein, UniProt Q7Z569 1-592)
chain: MSVSLVVIRLELAEHSPVPAGFGFSAAAGEMSDEEIKKTTLASAVACLEGKSPGEKVAIIHQHLGRREMTDVIIETMKSNPDELKTTVEERKSSEASPTAQRSKDHSKECINAAPDSPSKQLPDQISFFSGNPSVEIVHGIMHLYKTNKMTSLKEDVRRSAMLCILTVPAAMTSHDLMKFVAPFNEVIEQMKIIRDSTPNQYMVLIKFRAQADADSFYMTCNGRQFNSIEDDVCQLVYVERAEVLKSEDGASLPVMDLTELPKCTVCLERMDESVNGILTTLCNHSFHSQCLQRWDDTTCPVCRYCQTPEPVEENKCFECGVQENLWICLICGHIGCGRYVSRHAYKHFEETQHTYAMQLTNHRVWDYAGDNYVHRLVASKTDGKIVQYECEGDTCQEEKIDALQLEYSYLLTSQLESQRIYWENKIVRIEKDTAEEINNMKTKFKETIEKCDNLEHKLNDLLKEKQSVERKCTQLNTKVAKLTNELKEEQEMNKCLRANQVLLQNKLKEEERVLKETCDQKDLQITEIQEQLRDVMFYLETQQKINHLPAETRQEIQEGQINIAMASASSPASSGGSGKLPSRKGRSKRGK
With B1, the binding entry with Myc-MST2 is listed as “binds”.

B2: endogenous BRAP (protein, UniProt Q7Z569 1-592)
chain: B1 chain
Regarding B2, the binding entry in assay [1] is “binds”.
